These are yes or no findings as the source states them, for the method shown. Binding seen in cells or lysates may run through a third protein. Some results given as binding are weak or reduced against the parent protein; the word gives no strength. For part of these data: Where a sequence is shown, tags or fusion partners need not be part of it.
Legend:
[1] = target: T1, ACOX1, endogenous (human (endogenous in HCT15 and RKO)) (UniProt Q15067); assay: co-IP; endogenous proteins in HCT15 and RKO cells; cells treated with MG132 (20 μM) for 6 h before harvest
T1 sequence: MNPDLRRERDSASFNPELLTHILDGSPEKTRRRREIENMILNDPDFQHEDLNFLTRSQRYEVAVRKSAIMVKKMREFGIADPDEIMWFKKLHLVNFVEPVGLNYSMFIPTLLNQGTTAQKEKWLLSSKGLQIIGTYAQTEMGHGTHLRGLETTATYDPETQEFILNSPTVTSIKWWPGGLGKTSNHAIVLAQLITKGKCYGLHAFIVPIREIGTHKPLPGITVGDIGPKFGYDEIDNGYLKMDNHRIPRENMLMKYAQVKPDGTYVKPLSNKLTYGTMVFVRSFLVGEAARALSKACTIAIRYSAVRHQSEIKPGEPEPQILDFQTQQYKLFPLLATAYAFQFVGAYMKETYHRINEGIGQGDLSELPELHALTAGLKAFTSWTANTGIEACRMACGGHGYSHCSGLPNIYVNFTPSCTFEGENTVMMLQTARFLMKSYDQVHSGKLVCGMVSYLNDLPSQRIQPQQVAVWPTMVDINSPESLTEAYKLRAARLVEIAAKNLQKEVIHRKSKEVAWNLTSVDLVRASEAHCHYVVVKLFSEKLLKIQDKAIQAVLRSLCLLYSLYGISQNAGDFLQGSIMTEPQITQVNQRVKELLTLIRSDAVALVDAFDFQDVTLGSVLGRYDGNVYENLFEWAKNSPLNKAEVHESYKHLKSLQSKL

[2] = target: T2, Flag-tagged ACOX1 (acyl-CoA oxidase 1) (human) (UniProt Q15067); assay: co-IP; HEK293T cells transfected with ACOX1 or DUSP14 whole and deletion constructs; lysates on anti-Flag agarose beads overnight at 4 °C, immunoblot
T2 sequence: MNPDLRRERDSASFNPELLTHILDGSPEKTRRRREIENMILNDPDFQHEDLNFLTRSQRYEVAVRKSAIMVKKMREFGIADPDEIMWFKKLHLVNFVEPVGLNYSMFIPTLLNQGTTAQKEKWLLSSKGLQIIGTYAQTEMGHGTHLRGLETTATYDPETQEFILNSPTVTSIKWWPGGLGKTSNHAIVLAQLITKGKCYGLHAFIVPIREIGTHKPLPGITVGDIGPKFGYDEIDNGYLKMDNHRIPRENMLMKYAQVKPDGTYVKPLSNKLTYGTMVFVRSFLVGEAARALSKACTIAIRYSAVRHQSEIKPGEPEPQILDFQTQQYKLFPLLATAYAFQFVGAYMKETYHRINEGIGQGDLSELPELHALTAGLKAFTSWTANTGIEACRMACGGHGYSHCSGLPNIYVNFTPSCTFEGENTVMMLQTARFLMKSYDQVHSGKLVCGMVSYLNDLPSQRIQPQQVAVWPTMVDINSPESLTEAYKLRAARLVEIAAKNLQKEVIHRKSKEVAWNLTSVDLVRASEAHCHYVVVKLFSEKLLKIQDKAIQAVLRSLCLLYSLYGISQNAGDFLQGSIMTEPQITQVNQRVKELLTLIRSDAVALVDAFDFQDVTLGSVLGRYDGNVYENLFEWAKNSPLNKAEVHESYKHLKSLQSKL

[3] = target: ACOX1 (glutaraldehyde cross-linking experiment) (not stated (human or mouse cDNA cloned)) (UniProt Q15067); assay: cross-linking; glutaraldehyde cross-linking of ACOX1 (Supplementary Fig. S6g); conditions not shown

B1: DUSP14, endogenous (enzyme, UniProt O95147 1-198)
chain: MSSRGHSTLPRTLMAPRMISEGDIGGIAQITSSLFLGRGSVASNRHLLQARGITCIVNATIEIPNFNWPQFEYVKVPLADMPHAPIGLYFDTVADKIHSVSRKHGATLVHCAAGVSRSATLCIAYLMKFHNVCLLEAYNWVKARRPVIRPNVGFWRQLIDYERQLFGKSTVKMVQTPYGIVPDVYEKESRHLMPYWGI
binding [1]: binds

B2: DUSP14, transfected in HEK293T (enzyme, UniProt O95147 1-198)
chain: MSSRGHSTLPRTLMAPRMISEGDIGGIAQITSSLFLGRGSVASNRHLLQARGITCIVNATIEIPNFNWPQFEYVKVPLADMPHAPIGLYFDTVADKIHSVSRKHGATLVHCAAGVSRSATLCIAYLMKFHNVCLLEAYNWVKARRPVIRPNVGFWRQLIDYERQLFGKSTVKMVQTPYGIVPDVYEKESRHLMPYWGI
binding [2]: binds

B3: ACOX1 (glutaraldehyde cross-linking experiment) (enzyme, UniProt Q15067 1-660)
chain: MNPDLRRERDSASFNPELLTHILDGSPEKTRRRREIENMILNDPDFQHEDLNFLTRSQRYEVAVRKSAIMVKKMREFGIADPDEIMWFKKLHLVNFVEPVGLNYSMFIPTLLNQGTTAQKEKWLLSSKGLQIIGTYAQTEMGHGTHLRGLETTATYDPETQEFILNSPTVTSIKWWPGGLGKTSNHAIVLAQLITKGKCYGLHAFIVPIREIGTHKPLPGITVGDIGPKFGYDEIDNGYLKMDNHRIPRENMLMKYAQVKPDGTYVKPLSNKLTYGTMVFVRSFLVGEAARALSKACTIAIRYSAVRHQSEIKPGEPEPQILDFQTQQYKLFPLLATAYAFQFVGAYMKETYHRINEGIGQGDLSELPELHALTAGLKAFTSWTANTGIEACRMACGGHGYSHCSGLPNIYVNFTPSCTFEGENTVMMLQTARFLMKSYDQVHSGKLVCGMVSYLNDLPSQRIQPQQVAVWPTMVDINSPESLTEAYKLRAARLVEIAAKNLQKEVIHRKSKEVAWNLTSVDLVRASEAHCHYVVVKLFSEKLLKIQDKAIQAVLRSLCLLYSLYGISQNAGDFLQGSIMTEPQITQVNQRVKELLTLIRSDAVALVDAFDFQDVTLGSVLGRYDGNVYENLFEWAKNSPLNKAEVHESYKHLKSLQSKL
binding [3]: binds
